# From article PMC12040169 (PLOS Biology, 2025)
# The list shows a part of the results.
# Test system: T1, CTL2-GFP (C. trachomatis L2/434/Bu, GFP-expressing)
# T1 construct: L2/434/Bu, GFP-expressing
# Set-up: species or system HeLa; Intracellular C. trachomatis growth in HeLa cells, bulk GFP fluorescence relative to DMSO
# Settings: bulk GFP, single well; 28.5 h, 10 µM; inhibitor
row,Structure (SMILES),% of control remaining [%]
1,Cc1nn(CC(C)C)c(C)c1CCC(=O)NCc1nnc2ccccn12 [CBK305719],94.5728
2,CN(C)CC(c1ccccc1)c1nnc2n1-c1ccc(S(C)(=O)=O)cc1C(c1ccccc1)=NC2 (centres unmarked) [CBK005856G],110.61
3,Cc1nn(CCCC(=O)O)c(C)c1I [CBK269796],106.61
4,CCn1c(C)nc2cc(NC(=O)CC3CCCCO3)ccc21 (centres unmarked) [CBK281859],111.751
5,COc1cccc(-c2nc(SCC(=O)Nc3ccc([N+](=O)[O-])cc3)[nH]c(=O)c2C#N)c1 [CBK264912],139.77
6,CC(=O)Oc1cccc(C(=O)O)c1C [CBK038235],124.474
7,Cc1ccc(C(=O)C2=C(O)C(=O)N(CCCN3CCOCC3)C2c2ccccn2)o1 (centres unmarked) [CBK269187],153.698
8,CCOc1ccc(C(=O)NC(=S)Nc2ncccc2C)cc1[N+](=O)[O-] [CBK264128],121.168
9,Cc1nc(CCNCc2c(C)nn(C)c2N2CCOCC2)cs1 [CBK304054],119.038
10,Cc1sc2c(c1C)c(=O)nc1scc(CC(=O)NCCO)n12 [CBK266726],137.811
11,COc1nccnc1-c1cnn(C)c1 [CBK107069],122.085
12,Cc1noc(-c2ccc3c(c2O)OCCO3)c1-c1ccc(Cl)cc1 [CBK018086],3.354
13,Cc1ccc(C(C)C)c(OCCSc2nc3c(N)ncnc3[nH]2)c1 [CBK266941],149.892
14,CCc1nn(CC(=O)N2CCCCC2)c(=O)c2cc3occc3n12 [CBK283674],159.248
15,O=C(c1ccc(F)cc1)c1cn(CCO)c2c(Cl)nccc12 [CBK285129],138.519
16,CCOC(=O)C1CCN(Cc2c(O)c3ccccc3oc2=O)CC1 [CBK266035],182.092
17,CCOC(=O)Cc1csc(NS(=O)(=O)c2cc(Cl)c(Cl)s2)n1 [CBK000847],117.858
18,O=C(NC(c1ccc(Cl)cc1)c1cccnc1)C1CCN(C(=O)C2CC2)CC1 (centres unmarked) [CBK059686],108.212
19,Cc1nc2c(c(=O)[nH]1)CC[C@@H]1CN(C(=O)c3cc(F)cc(F)c3)C[C@H]21 [CBK284418],94.4549
20,CCc1nc2cccnc2n1CCNC(=O)c1cccs1 [CBK283638],131.509
21,Cc1c(Cl)cccc1S(=O)(=O)Nc1nc(C(C)Sc2nccn2C)ns1 (centres unmarked) [CBK200052],116.343
22,Cn1c(=O)c2c(ncn2CC(=O)Nc2ccc(C#N)cc2)n(C)c1=O [CBK133466],107.325
23,CCCc1oc(C(=O)O)cc1CN1CCCCC1 [CBK267973C],101.877
24,Cc1nc2nc(N)nn2c(C)c1CCC(=O)OCc1cccc(C#N)c1 [CBK306083],139.138
25,CC(C)Cn1c(CN2CCOCC2)nc2c1c(=O)n(C)c(=O)n2C [CBK305913],108.586

# Part of the list above in order of formula weight, descending:
row,Structure (SMILES),% of control remaining [%]
19,Cc1nc2c(c(=O)[nH]1)CC[C@@H]1CN(C(=O)c3cc(F)cc(F)c3)C[C@H]21 [CBK284418],94.4549
16,CCOC(=O)C1CCN(Cc2c(O)c3ccccc3oc2=O)CC1 [CBK266035],182.092
23,CCCc1oc(C(=O)O)cc1CN1CCCCC1 [CBK267973C],101.877

# Carrying on.

row,Structure (SMILES),% of control remaining [%]
1,CSCCCNC(=O)N1CCCC(C(=O)O)C1 (centres unmarked) [CBK161343],140.218
2,CN1CC2(CCCN(Cc3nnc(-c4cccnc4)o3)C2)OC1=O (centres unmarked) [CBK306888],117.865
3,O=C(O)c1cccc(NS(=O)(=O)c2ccc(-c3cc(C(F)(F)F)on3)s2)c1 [CBK155722],120.333
4,Cn1c(=O)c2c([nH]c(=S)n2CCCc2ccccc2)n(C)c1=O [CBK288411],82.4553
5,Nc1ncc(-c2ccsc2)nc1NCc1ccncc1 [CBK063614],195.869
6,CN(C(=O)c1ccccc1)[C@]1(C)C2CC(C[C@@H]2O)C1(C)C (some centres unmarked) [CBK010498],90.8163
7,CCC(c1ccc(F)cc1)N(C)C(=O)Cn1cccc(C(=O)Nc2ccc(F)cc2)c1=O (centres unmarked) [CBK286061],98.7225
8,COCC(=O)N[C@H]1CCN2C(=O)c3cc(-c4ccc(F)cc4F)ccc3NC(=O)[C@@H]2C1 [CBK289561],121.494
9,Cc1ccc(CC(=O)N2CCC(Cc3ccc(-c4cccc(C)c4)cc3)(C(N)=O)CC2)cc1 [CBK285906],125.694
10,O=C(Nc1ccc2c(c1)OCCO2)c1cnc(-c2ccc(Cl)cc2)c(-c2cccnc2)c1 [CBK037528],125.664
11,O=[N+]([O-])c1ccc(CSc2nnc(-c3cccnc3)n2Cc2ccco2)cc1 [CBK264580],130.087
12,CN1CCN(C2Cc3ccccc3Sc3c(O)cccc32)CC1 (centres unmarked) [CBK026200G],128.518
13,O=C(CC1CCN(C(=O)CC2CCCCC2)CC1)Nc1ccccc1CN1CCCC1 [CBK286046],147.084
14,COc1ccc(-c2cc(C(F)(F)F)c3c(n2)sc2c(=O)cc(O)[nH]c23)cc1OC [CBK270201],128.256
15,Cc1ccsc1C(C)NC1CCCN(c2ccn(C)n2)C1=O (centres unmarked) [CBK306419],100.752
16,O=C1c2cccc3cccc(c23)C(=O)N1CCCSc1nnc[nH]1 [CBK268894],166.547
17,N#C/C(=C\c1ccc(-c2cccc(C(=O)O)c2)o1)c1nc2ncc(Br)cc2[nH]1 [CBK265054],100
18,O=C(O)CCC(=O)N1CC[C@H]2NC(=O)N(c3ccc(F)cc3)C(=O)[C@H]21 [CBK289329],103.187
19,COc1ccccc1OCCOc1ccc(/C=N/n2cnnc2)cc1 [CBK263295],122.026
20,Cc1c(C(=O)Nc2ccc(OCc3ccccc3F)cc2)sc2nc[nH]c(=O)c12 [CBK285834],134.361
21,OC(CN1CCC(O)(c2ccc(F)cc2)CC1)c1ccccc1 (centres unmarked) [CBK282489],127.74
22,COc1ccc(CC(=O)N2CCCCC2c2cc(-c3ccc(F)cc3)cc(C)n2)cc1OC (centres unmarked) [CBK285858],84.4506
23,c1ccc(Oc2ccccc2-c2ccc(Nc3ccc(N4CCOCC4)cc3)nc2)cc1 [CBK036913],218.918
24,CC(C)(CSc1ncccn1)NS(=O)(=O)c1ccccc1 [CBK268282],135.373
25,O=C(O)c1ccc(NS(=O)(=O)c2ccc3c(c2)OCCO3)cc1 [CBK296129],129.935
